Data published in paper doi:10.1101/2020.05.13.090514.
Read-outs that look alike come from different tables or passages of the source. No constants are given. Whether binding was seen depends on the method and setting. In cells and extracts the contact can be indirect. Some binding calls cover weakened binding; strength is not graded here. For some assays here: Tags and fused reporters may be left off the sequences shown. Each block holds one molecule with its values, some of them ahead of it.

Protein sequences, listed by entry. Tags and fused reporters are not part of them.
UniProt O75396: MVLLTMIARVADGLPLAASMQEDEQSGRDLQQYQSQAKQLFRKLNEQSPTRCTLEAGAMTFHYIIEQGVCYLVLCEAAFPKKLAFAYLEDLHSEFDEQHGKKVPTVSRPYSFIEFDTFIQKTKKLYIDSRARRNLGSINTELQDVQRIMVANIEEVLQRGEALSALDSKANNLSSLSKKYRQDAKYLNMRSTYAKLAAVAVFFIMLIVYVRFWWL
UniProt O00214: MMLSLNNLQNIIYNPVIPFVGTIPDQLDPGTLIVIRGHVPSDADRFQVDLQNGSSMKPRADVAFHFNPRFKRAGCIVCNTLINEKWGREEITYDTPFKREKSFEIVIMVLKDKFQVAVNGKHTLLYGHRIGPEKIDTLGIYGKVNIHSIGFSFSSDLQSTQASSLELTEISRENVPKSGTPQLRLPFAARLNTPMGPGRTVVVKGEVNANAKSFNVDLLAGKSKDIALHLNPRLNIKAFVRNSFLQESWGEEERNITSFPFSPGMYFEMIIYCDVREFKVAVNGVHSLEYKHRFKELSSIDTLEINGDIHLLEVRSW
UniProt P61081: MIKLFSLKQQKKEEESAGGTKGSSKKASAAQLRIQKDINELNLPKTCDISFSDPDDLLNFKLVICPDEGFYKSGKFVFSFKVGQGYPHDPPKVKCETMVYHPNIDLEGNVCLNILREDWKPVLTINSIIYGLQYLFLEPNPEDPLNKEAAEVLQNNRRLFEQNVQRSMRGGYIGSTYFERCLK

Assays:
Test in all cases: co-IP
[1] = molecular target: T1, FLAG-tagged FKBP51 (FK506-binding protein 51), expressed in SH-SY5Y cells (UniProt Q13451)
T1 sequence: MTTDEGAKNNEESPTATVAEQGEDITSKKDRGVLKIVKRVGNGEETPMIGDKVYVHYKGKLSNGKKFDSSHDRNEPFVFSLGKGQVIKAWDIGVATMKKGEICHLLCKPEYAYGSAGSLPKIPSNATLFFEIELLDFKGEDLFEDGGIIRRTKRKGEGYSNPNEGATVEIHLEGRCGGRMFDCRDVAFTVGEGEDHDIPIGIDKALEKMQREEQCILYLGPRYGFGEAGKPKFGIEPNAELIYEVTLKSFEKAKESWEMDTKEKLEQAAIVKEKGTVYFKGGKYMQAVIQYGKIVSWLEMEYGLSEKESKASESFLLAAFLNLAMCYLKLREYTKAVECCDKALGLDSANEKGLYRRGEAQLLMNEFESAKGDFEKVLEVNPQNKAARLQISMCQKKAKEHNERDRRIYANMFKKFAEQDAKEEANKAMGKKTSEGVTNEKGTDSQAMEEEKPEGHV

[2] = molecular target: T1, FLAG-tagged FKBP51 (FK506-binding protein 51), expressed in SH-SY5Y cells; remark: listed apart in the source
[3] = molecular target: GFP-tagged SEC22B, expressed in SH-SY5Y cells (UniProt O75396)

binding [1]: binds
Molecule: galectin-8 (GAL8) in SH-SY5Y cells (from UniProt O00214 1-317)

binding [1]: binds
Molecule: SEC22B detected by blot in FLAG immunoprecipitates from SH-SY5Y cells (from UniProt O75396 1-215)

binding [1]: binds
Molecule: UBC12 in SH-SY5Y cells (from UniProt P61081 1-183)

binding [2]: binds | binding [3]: binds weakly
B1: syntaxin 3 (STX3) in SH-SY5Y cells (protein, UniProt Q13277 1-289)
chain: MKDRLEQLKAKQLTQDDDTDAVEIAIDNTAFMDEFFSEIEETRLNIDKISEHVEEAKKLYSIILSAPIPEPKTKDDLEQLTTEIKKRANNVRNKLKSMEKHIEEDEVRSSADLRIRKSQHSVLSRKFVEVMTKYNEAQVDFRERSKGRIQRQLEITGKKTTDEELEEMLESGNPAIFTSGIIDSQISKQALSEIEGRHKDIVRLESSIKELHDMFMDIAMLVENQGEMLDNIELNVMHTVDHVEKARDETKKAVKYQSQARKKLIIIIVLVVVLLGILALIIGLSVGLN

binding [2]: binds | binding [3]: binds weakly
B2: synaptosomal-associated protein SNAP23 in SH-SY5Y cells (protein, UniProt O00161 1-211)
chain: MDNLSSEEIQQRAHQITDESLESTRRILGLAIESQDAGIKTITMLDEQKEQLNRIEEGLDQINKDMRETEKTLTELNKCCGLCVCPCNRTKNFESGKAYKTTWGDGGENSPCNVVSKQPGPVTNGQLQQPTTGAASGGYIKRITNDAREDEMEENLTQVGSILGNLKDMALNIGNEIDAQNPQIKRITDKADTNRDRIDIANARAKKLIDS

binding [3]: binds
B3: FKBP51 of SH-SY5Y cells, detected by blot in immunoprecipitates of its partners (protein, UniProt Q13451 1-457)
chain: T1 sequence
